Assay results as given in PMC10163088.

Experiments:
[1] = target: GST-Yox1 length variant aa 235-280 (S. cerevisiae); assay: pull-down; GST fusions of repressors (full-length or length variants) immobilised on GSH sepharose, incubated with bacterial total protein extracts containing HA-tagged Sin3, Cyc8 or Tup1 (or Tup1 length variants); elution with free GSH, anti-HA blot (Figs. 1, 3, 4, 5); only the target purified
[2] = target: GST-Dal80 N-terminal part comprising the zinc finger domain (S. cerevisiae); assay: as above

B1: HA3-Cyc8 (aa 1-398 with 10 TPR motifs; pFK77) (domain or fragment, UniProt P14922 1-398)
chain: MNPGGEQTIMEQPAQQQQQQQQQQQQQQQQAAVPQQPLDPLTQSTAETWLSIASLAETLGDGDRAAMAYDATLQFNPSSAKALTSLAHLYRSRDMFQRAAELYERALLVNPELSDVWATLGHCYLMLDDLQRAYNAYQQALYHLSNPNVPKLWHGIGILYDRYGSLDYAEEAFAKVLELDPHFEKANEIYFRLGIIYKHQGKWSQALECFRYILPQPPAPLQEWDIWFQLGSVLESMGEWQGAKEAYEHVLAQNQHHAKVLQQLGCLYGMSNVQFYDPQKALDYLLKSLEADPSDATTWYHLGRVHMIRTDYTAAYDAFQQAVNRDSRNPIFWCSIGVLYYQISQYRDALDAYTRAIRLNPYISEVWYDLGTLYETCNNQLSDALDAYKQAARLDVNN
**Q.** For B1, which binding [1] is on record?
**A.** binds

**Q.** What about the binding [2] of the same binder?
**A.** no binding

Results are given in words; binding and its absence hold for the method and conditions named. In cells and extracts the contact can be indirect. For some assays here: Binding can be weak; no strength is given.
